Source: paper PMC9319741, “A Novel ERK2 Degrader Z734 Induces Apoptosis of MCF–7 Cells via the HERC3/p53 Signaling Pathway” (Molecules, 2022)
Results are given in words; binding and its absence hold for the method and conditions named. For some assays here: In cells and extracts the contact can be indirect. Some results given as binding are weak or reduced against the parent protein; the word gives no strength. For some assays here: Tags and fused reporters may be left off the sequences shown. Each block holds one molecule with its values, some of them ahead of it.

Protein sequences, listed by entry. Tags and fused reporters are not part of them. Lines headed by an entry give the natural chain unless they say otherwise; changes in a name come on top.
UniProt P28482: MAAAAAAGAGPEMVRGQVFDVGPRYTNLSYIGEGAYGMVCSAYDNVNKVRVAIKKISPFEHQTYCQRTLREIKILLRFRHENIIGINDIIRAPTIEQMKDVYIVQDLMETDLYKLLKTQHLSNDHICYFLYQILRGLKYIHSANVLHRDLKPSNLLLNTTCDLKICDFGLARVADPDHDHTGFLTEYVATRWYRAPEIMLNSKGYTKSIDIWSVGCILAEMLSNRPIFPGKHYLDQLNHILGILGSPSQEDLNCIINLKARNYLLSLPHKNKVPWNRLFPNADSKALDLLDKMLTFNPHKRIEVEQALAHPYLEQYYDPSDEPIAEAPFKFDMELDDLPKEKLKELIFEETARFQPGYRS

Key:
Myc–HERC3 = target: T1, Myc–HERC3 (UniProt Q15034); experiment: co-IP; MCF–7 cells co-transfected with Flag–ERK2 and Myc–HERC3 for 24 h; total lysates immunoprecipitated with anti–Myc or anti–Flag and protein A/G beads overnight at 4 °C; Western blot
T1 sequence: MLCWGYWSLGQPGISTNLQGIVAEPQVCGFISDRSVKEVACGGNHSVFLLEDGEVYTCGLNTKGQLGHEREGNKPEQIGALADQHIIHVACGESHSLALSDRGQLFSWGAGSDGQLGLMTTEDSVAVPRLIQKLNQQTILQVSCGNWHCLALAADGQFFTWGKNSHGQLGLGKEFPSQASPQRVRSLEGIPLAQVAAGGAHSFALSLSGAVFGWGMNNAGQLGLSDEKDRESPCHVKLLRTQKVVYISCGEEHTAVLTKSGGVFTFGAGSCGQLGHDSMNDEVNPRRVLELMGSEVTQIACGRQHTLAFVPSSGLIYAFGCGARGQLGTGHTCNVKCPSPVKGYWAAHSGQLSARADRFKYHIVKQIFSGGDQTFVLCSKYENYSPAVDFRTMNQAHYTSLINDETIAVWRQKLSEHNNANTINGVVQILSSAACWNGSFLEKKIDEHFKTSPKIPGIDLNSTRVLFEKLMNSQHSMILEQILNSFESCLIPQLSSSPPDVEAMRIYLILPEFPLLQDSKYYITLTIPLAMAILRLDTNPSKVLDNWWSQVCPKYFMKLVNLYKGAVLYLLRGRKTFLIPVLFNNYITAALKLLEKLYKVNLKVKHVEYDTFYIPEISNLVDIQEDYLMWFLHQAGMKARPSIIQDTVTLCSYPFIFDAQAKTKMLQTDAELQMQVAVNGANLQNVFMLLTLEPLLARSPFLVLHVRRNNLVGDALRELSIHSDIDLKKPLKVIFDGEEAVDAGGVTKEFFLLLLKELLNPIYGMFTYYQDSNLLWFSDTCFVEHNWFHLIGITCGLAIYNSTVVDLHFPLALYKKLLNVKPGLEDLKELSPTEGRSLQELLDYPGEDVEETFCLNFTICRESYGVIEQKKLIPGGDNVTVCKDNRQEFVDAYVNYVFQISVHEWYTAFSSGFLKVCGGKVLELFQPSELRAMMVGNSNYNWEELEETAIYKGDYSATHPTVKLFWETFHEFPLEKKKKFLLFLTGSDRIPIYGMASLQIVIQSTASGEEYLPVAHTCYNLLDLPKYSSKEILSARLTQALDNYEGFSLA

[1] = target: T2, endogenous HERC3 (human (endogenous in MCF–7)) (UniProt Q15034); experiment: co-IP; endogenous proteins of MCF–7 cells; IgG as negative control; antibody and protein A/G beads overnight at 4 °C; Western blot
T2 sequence: T1 sequence

[2] = target: T2, endogenous HERC3 (human (endogenous in MCF–7)); experiment: co-IP; MCF–7 cells; IgG as negative control; Western blot
[3] = target: T3, purified GST–HERC3 protein (UniProt Q15034); experiment: pull-down; purified GST–HERC3 mixed with purified Flag–ERK2 in vitro; GST pulldown; both purified
T3 sequence: T1 sequence

Flag–ERK2 = Flag–ERK2 (UniProt P28482); experiment: co-IP; MCF–7 cells co-transfected with Flag–ERK2 and Myc–HERC3 for 24 h; total lysates immunoprecipitated with anti–Myc or anti–Flag and protein A/G beads overnight at 4 °C; Western blot

Molecule: Flag–ERK2 (from UniProt P28482-1 1-360)
binding (Myc–HERC3): binds

Molecule: purified Flag–ERK2 protein (from UniProt P28482-1 1-360)
binding [3]: binds

B1: Myc–HERC3 (protein, UniProt Q15034-1 1-1050)
chain: T1 sequence
binding (Flag–ERK2): binds

Second part, the molecule after the results:

binding [1]: binds
Molecule: endogenous ERK2 (from UniProt P28482-1 1-360)

binding [2]: binds
Molecule: p53 (from UniProt P04637 1-393)
